Measured values published in patent US8101550B2, “Anthranilic acid diamide derivative with hetero-aromatic and hetero-cyclic substituents” (Bayer Cropscience AG, priority 2006, dated 2012).
Some entries share one result that the patent states for a list of compounds. At least one compound was matched to its structure with a doubt left.

Experiments:
[1] = test system: larvae of the mustard beetle (Phaedon cochleariae); experiment: Phaedon test (spray treatment); type: in vivo; conditions: application rate 100 g/ba; Chinese cabbage leaf discs sprayed
[2] = test system: larvae of the armyworm (Spodoptera frugiperda); experiment: Spodoptera frugiperda test (spray treatment); type: in vivo; conditions: 100 g/ha; maize leaf discs sprayed

Compound	effect in % (kill of beetle larvae) [1] [%]	effect in % (kill of caterpillars) [2] [%]
CCNC(=O)c1cc(I)cc(C)c1NC(=O)c1cc(Cn2nc(C(F)(F)F)cc2C(F)(F)F)nn1-c1ncccc1Cl [I-1-228]	≥ 80	≥ 80
CNC(=O)c1cc(F)cc(C)c1NC(=O)c1cc(Cn2cc(Cl)c(C(F)(F)C(F)(F)F)n2)nn1-c1ncccc1Cl [I-1-223]	≥ 80	≥ 80
Cc1cc(I)cc(C(=O)NCC#N)c1NC(=O)c1cc(Cn2nc(C(F)(F)F)nc2C(F)(F)F)nn1-c1ncccc1Cl [I-1-245]	≥ 80	≥ 80
CNC(=O)c1cc(Cl)cc(C)c1NC(=O)c1cc(Cn2cc(I)cn2)nn1-c1ncccc1Cl [I-1-45]	≥ 80	≥ 80
NC(=O)c1cc(Cl)cc(Cl)c1NC(=O)c1cc(Cn2nc(C(F)(F)F)cc2C(F)(F)F)nn1-c1ncccc1Cl [I-1-302]	≥ 80	≥ 80
CSC[C@H](C)NC(=O)c1cc(Cl)cc(C)c1NC(=O)c1cc(Cn2nnc(-c3ccc(Cl)nc3)n2)nn1-c1ncccc1Cl [I-1-158]	≥ 80	≥ 80
CC(C)NC(=O)c1cc(Cl)cc(Cl)c1NC(=O)c1cc(Cn2nc(C(F)F)c([N+](=O)[O-])c2C(F)F)nn1-c1ncccc1Cl [I-1-259]	≥ 80	≥ 80
CNC(=O)c1cc(Br)cc(C)c1NC(=O)c1cc(Cn2nc(C(F)(F)F)cc2C(F)(F)F)nn1-c1ncccc1Cl [I-1-58]	≥ 80	≥ 80
Cc1cc(Br)cc(C(N)=O)c1NC(=O)c1cc(Cn2nc(C(F)(F)F)cc2C(F)(F)F)nn1-c1ncccc1Cl [I-1-61]	≥ 80	≥ 80
Cc1cc(I)cc(C(=O)NC(C)C)c1NC(=O)c1cc(Cn2cc(Cl)c(C(F)(F)C(F)(F)F)n2)nn1-c1ncccc1Cl [I-1-242]	≥ 80	≥ 80
Cc1cc(I)cc(C(=O)NCC2CC2)c1NC(=O)c1cc(Cn2nc(C(F)(F)F)nc2C(F)(F)F)nn1-c1ncccc1Cl [I-1-253]	≥ 80	≥ 80
O=C(NC1CC1)c1cc(Cl)cc(Cl)c1NC(=O)c1cc(Cn2nc(C(F)(F)F)nc2C(F)(F)F)nn1-c1ncccc1Cl [I-1-295]	≥ 80	≥ 80
Cc1cc(C#N)cc(C(=O)NC(C)C)c1NC(=O)c1cc(Cn2ccc(C(F)(F)F)n2)nn1-c1ncccc1Cl [I-1-182]	≥ 80	≥ 80
N#CCNC(=O)c1cc(Cl)cc(Cl)c1NC(=O)c1cc(Cn2nc(C(F)(F)F)cc2C(F)(F)F)nn1-c1ncccc1Cl [I-1-303]	≥ 80	≥ 80
Cc1cc(C#N)cc(C(N)=O)c1NC(=O)c1cc(Cn2nc(C(F)(F)F)cc2C(F)(F)F)nn1-c1ncccc1Cl [I-1-189]	≥ 80	≥ 80
CC(C)NC(=O)c1cc(Cl)cc(Cl)c1NC(=O)c1cc(Cn2nc(C(F)(F)F)nc2C(F)(F)F)nn1-c1ncccc1Cl [I-1-291]	≥ 80	≥ 80
Cc1cc(Cl)cc(C(=O)NCC#N)c1NC(=O)c1cc(Cn2cnc(C(F)(F)C(F)(F)F)n2)nn1-c1ncccc1Cl [I-1-348]	≥ 80	≥ 80
Cc1cc(F)cc(C(=O)NC(C)C)c1NC(=O)c1cc(Cn2cc(Cl)c(C(F)(F)C(F)(F)F)n2)nn1-c1ncccc1Cl [I-1-224]	≥ 80	≥ 80
Cc1cc(F)cc(C(=O)NC(C)C)c1NC(=O)c1cc(Cn2ccc(C(F)(F)F)n2)nn1-c1ncccc1Cl [I-1-226]	≥ 80	≥ 80
Cc1cc(Br)cc(C(=O)NCC#N)c1NC(=O)c1cc(Cn2ccc(C(F)(F)F)n2)nn1-c1ncccc1Cl [I-1-85]	≥ 80	≥ 80
Cc1cc(C#N)cc(C(=O)NCC#N)c1NC(=O)c1cc(Cn2nc(C(F)(F)F)cc2C(F)(F)F)nn1-c1ncccc1Cl [I-1-190]	≥ 80	≥ 80
CC(C)NC(=O)c1cc(Cl)cc(Cl)c1NC(=O)c1cc(Cn2nc(C(F)(F)F)cc2C(F)(F)F)nn1-c1ncccc1Cl [I-1-305]	≥ 80	≥ 80
CNC(=O)c1cc(Cl)cc(C)c1NC(=O)c1cc(Cn2nnc(-c3ccc(Cl)nc3)n2)nn1-c1ncccc1Cl [I-1-148]	≥ 80	≥ 80
Cc1cc(Cl)cc(C(=O)NCC#N)c1NC(=O)c1cc(Cn2nc(C(F)(F)F)nc2C(F)(F)F)nn1-c1ncccc1Cl [I-1-79]	≥ 80	≥ 80

Compound	effect in % (kill of beetle larvae) [1] [%]	effect in % (kill of caterpillars) [2] [%]
CNC(=O)c1cc(Cl)cc(C)c1NC(=O)c1cc(Cn2cnc(C(F)(F)C(F)(F)F)n2)nn1-c1ncccc1Cl [I-1-347]	≥ 80	≥ 80
Cc1cc(C#N)cc(C(=O)NC2CC2)c1NC(=O)c1cc(Cn2ccc(C(F)(F)F)n2)nn1-c1ncccc1Cl [I-1-183]	≥ 80	≥ 80
Cc1cc(I)cc(C(=O)NCC#N)c1NC(=O)c1cc(Cn2cc(Cl)c(C(F)(F)C(F)(F)F)n2)nn1-c1ncccc1Cl [I-1-246]	≥ 80	≥ 80
Cc1cc(Br)cc(C(=O)NC(C)C)c1NC(=O)c1cc(Cn2cc(Cl)c(C(F)(F)C(F)(F)F)n2)nn1-c1ncccc1Cl [I-1-71]	≥ 80	≥ 80
Cc1cc(I)cc(C(=O)NC2CC2)c1NC(=O)c1cc(Cn2nc(C(F)(F)F)cc2C(F)(F)F)nn1-c1ncccc1Cl [I-1-231]	≥ 80	≥ 80
CNC(=O)c1cc(Cl)cc(C)c1NC(=O)c1cc(C(=NOC)n2nc(C(F)(F)F)cc2C(F)(F)F)nn1-c1ncccc1Cl [I-1-355]	≥ 80	≥ 80
Cc1cc(Cl)cc(C(=O)NC(C)C)c1NC(=O)c1cc(Cn2nnc(-c3ccc(Br)cc3)n2)nn1-c1ncccc1Cl [I-1-151]	≥ 80	≥ 80
Cc1cc(Br)cc(C(=O)NCC#N)c1NC(=O)c1cc(Cn2cc(Cl)c(C(F)(F)C(F)(F)F)n2)nn1-c1ncccc1Cl [I-1-73]	≥ 80	≥ 80
Cc1cc(Cl)cc(C(=O)NC(C)C)c1NC(=O)c1cc(Cn2cc(C(F)(F)C(F)(F)F)cn2)nn1-c1ncccc1Cl [I-1-65]	≥ 80	≥ 80
Cc1cc(Cl)cc(C(=O)NC(C)C)c1NC(=O)c1cc(Cn2cnc(C(F)(F)C(F)(F)F)n2)nn1-c1ncccc1Cl [I-1-334]	≥ 80	≥ 80
Cc1cc(I)cc(C(=O)NC(C)C)c1NC(=O)c1cc(Cn2nc(C(F)F)c([N+](=O)[O-])c2C(F)F)nn1-c1ncccc1Cl [I-1-267]	≥ 80	≥ 80
CNC(=O)c1cc(Cl)cc(C)c1NC(=O)c1cc(Cn2ccc(C(F)(F)F)n2)nn1-c1ncccc1Cl [I-1-44]	≥ 80	≥ 80
Cc1cc(I)cc(C(=O)NC2CC2)c1NC(=O)c1cc(Cn2nc(C(F)(F)F)nc2C(F)(F)F)nn1-c1ncccc1Cl [I-1-252]	≥ 80	≥ 80
CNC(=O)c1cc(Cl)cc(C)c1NC(=O)c1cc(Cn2cc(C(F)(F)F)cn2)nn1-c1ncccc1Cl [I-1-42]	≥ 80	≥ 80
Cc1cc(Br)cc(C(=O)NC2CC2)c1NC(=O)c1cc(Cn2cc(Cl)c(C(F)(F)C(F)(F)F)n2)nn1-c1ncccc1Cl [I-1-72]	≥ 80	≥ 80
Cc1cc(Cl)cc(C(N)=O)c1NC(=O)c1cc(Cn2nc(C(F)(F)F)nc2C(F)(F)F)nn1-c1ncccc1Cl [I-1-50]	≥ 80	≥ 80
Cc1cc(C#N)cc(C(=O)NC(C)C)c1NC(=O)c1cc(Cn2nc(C(F)(F)F)cc2C(F)(F)F)nn1-c1ncccc1Cl [I-1-187]	≥ 80	≥ 80
NC(=O)c1cc(Cl)cc(Cl)c1NC(=O)c1cc(Cn2cnc(C(F)(F)C(F)(F)F)n2)nn1-c1ncccc1Cl [I-1-346]	≥ 80	≥ 80
CCNC(=O)c1cc(I)cc(C)c1NC(=O)c1cc(Cn2cc(Cl)c(C(F)(F)C(F)(F)F)n2)nn1-c1ncccc1Cl [I-1-277]	≥ 80	≥ 80
Cc1cc(C#N)cc(C(=O)NC2CC2)c1NC(=O)c1cc(Cn2cc(Cl)c(C(F)(F)C(F)(F)F)n2)nn1-c1ncccc1Cl [I-1-173]	≥ 80	≥ 80
Cc1cc(F)cc(C(=O)NC(C)C)c1NC(=O)c1cc(Cn2nc(C(F)(F)F)cc2C(F)(F)F)nn1-c1ncccc1Cl [I-1-225]	≥ 80	≥ 80
Cc1cc(Br)cc(C(=O)NC2CC2)c1NC(=O)c1cc(Cn2cc(Br)c(C(F)(F)F)n2)nn1-c1ncccc1Cl [I-1-93]	≥ 80	≥ 80
Cc1cc(I)cc(C(=O)NC(C)C2CC2)c1NC(=O)c1cc(Cn2nc(C(F)(F)F)nc2C(F)(F)F)nn1-c1ncccc1Cl (stereo not drawn) [I-1-284]	≥ 80	≥ 80
Cc1cc(I)cc(C(=O)NC2CCC2)c1NC(=O)c1cc(Cn2nc(C(F)(F)F)nc2C(F)(F)F)nn1-c1ncccc1Cl [I-1-282]	≥ 80	≥ 80
